The text below walks through data of PMC6628272.

Amino acid sequences for entries named in this document (tags omitted).
UniProt P40763: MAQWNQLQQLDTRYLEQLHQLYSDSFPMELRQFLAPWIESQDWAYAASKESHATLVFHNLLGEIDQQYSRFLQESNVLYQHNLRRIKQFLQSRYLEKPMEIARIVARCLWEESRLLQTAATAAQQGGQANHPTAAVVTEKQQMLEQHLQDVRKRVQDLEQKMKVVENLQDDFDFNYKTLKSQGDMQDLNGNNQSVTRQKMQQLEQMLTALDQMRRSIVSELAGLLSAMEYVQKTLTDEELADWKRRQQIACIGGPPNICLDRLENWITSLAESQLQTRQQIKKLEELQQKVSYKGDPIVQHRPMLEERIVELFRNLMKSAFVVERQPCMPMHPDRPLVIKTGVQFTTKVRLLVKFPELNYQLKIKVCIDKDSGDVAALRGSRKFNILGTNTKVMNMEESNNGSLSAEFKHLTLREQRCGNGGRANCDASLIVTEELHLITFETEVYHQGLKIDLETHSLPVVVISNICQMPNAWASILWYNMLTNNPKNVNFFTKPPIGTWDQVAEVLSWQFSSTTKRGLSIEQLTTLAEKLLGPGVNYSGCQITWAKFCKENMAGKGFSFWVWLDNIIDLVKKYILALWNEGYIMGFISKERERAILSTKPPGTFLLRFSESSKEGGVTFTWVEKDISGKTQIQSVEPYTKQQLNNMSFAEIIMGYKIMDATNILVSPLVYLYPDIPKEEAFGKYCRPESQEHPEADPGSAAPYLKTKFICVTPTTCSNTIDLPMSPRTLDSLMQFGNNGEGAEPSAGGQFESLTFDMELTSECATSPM
UniProt Q09472: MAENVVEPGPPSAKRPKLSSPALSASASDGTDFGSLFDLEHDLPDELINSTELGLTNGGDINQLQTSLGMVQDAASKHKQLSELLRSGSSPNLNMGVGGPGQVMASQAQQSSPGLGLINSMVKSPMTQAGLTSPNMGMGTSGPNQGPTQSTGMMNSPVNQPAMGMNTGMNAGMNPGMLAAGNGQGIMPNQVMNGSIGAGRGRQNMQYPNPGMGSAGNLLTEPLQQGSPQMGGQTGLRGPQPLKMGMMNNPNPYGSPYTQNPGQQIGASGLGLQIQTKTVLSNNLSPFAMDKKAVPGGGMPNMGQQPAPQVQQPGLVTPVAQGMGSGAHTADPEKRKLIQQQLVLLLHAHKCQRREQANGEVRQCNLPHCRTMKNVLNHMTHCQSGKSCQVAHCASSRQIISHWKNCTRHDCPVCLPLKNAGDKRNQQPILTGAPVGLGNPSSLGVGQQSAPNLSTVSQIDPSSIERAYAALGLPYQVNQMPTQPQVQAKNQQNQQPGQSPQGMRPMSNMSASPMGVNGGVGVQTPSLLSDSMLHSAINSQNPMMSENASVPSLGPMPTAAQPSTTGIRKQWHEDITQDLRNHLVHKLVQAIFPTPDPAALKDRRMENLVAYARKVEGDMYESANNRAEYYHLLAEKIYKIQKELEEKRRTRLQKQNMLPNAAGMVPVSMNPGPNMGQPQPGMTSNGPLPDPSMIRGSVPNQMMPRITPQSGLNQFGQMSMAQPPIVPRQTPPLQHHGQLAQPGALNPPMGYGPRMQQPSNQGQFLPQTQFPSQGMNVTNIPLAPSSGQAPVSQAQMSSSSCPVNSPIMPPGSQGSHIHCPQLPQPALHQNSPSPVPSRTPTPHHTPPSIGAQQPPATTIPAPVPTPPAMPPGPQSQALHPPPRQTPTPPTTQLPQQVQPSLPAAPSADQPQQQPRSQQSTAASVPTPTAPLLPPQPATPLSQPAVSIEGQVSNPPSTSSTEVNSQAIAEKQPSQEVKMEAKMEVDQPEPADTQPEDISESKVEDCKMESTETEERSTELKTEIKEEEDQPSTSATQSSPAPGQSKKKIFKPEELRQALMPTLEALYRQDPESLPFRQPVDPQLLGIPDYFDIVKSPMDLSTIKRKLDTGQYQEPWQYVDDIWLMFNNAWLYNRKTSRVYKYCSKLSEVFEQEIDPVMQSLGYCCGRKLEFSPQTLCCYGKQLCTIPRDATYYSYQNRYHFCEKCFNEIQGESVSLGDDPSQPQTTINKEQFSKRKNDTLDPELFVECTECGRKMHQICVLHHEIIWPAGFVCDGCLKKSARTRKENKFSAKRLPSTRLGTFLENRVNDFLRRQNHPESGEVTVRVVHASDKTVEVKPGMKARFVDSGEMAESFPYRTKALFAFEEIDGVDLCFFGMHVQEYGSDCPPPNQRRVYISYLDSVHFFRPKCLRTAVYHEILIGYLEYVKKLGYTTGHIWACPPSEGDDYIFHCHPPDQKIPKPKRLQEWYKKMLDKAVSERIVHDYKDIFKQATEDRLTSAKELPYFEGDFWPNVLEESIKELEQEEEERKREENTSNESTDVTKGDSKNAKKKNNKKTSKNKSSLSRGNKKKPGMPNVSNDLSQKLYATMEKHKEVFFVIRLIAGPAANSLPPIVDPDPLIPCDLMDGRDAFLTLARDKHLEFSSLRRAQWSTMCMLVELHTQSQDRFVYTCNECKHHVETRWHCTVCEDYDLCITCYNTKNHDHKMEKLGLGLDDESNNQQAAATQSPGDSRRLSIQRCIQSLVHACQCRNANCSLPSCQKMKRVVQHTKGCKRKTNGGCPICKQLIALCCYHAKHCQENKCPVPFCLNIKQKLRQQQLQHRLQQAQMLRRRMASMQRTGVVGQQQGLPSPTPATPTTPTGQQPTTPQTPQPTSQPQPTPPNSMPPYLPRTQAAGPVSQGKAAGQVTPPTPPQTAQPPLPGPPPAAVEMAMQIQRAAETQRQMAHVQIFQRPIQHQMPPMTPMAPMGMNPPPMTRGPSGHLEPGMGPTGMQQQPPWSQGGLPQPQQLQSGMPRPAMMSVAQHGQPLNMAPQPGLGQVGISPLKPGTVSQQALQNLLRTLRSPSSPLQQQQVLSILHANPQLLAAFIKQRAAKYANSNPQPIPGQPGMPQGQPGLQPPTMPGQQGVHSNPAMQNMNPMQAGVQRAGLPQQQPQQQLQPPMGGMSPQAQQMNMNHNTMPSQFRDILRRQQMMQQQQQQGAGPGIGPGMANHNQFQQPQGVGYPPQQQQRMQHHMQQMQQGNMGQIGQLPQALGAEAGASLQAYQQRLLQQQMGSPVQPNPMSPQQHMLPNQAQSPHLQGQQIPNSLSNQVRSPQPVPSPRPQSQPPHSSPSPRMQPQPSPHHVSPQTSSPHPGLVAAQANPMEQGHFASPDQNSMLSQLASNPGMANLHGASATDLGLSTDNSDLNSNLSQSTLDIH

In the assay the target is Signal transducers and activators of transcription 3 (STAT3) (human (endogenous in MCF-7 and DU145)) (UniProt P40763). Kind of assay: co-IP; MCF-7 and DU145 cell lysates immunoprecipitated with STAT3 and p300 antibodies, protein A/G sepharose beads, immunoblotting; cells with or without lambertianic acid (LA) for 24 h. (In general: A western blot detects proteins with antibodies after separation by electrophoresis.)

No constants are given. Whether binding was seen depends on the method and setting. In cells and extracts the contact can be indirect. Some results given as binding are weak or reduced against the parent protein; the word gives no strength.

p300 (from UniProt Q09472 1-2414): the binding entry is listed as “binds”.
